The text below walks through data of patent US8383643B2, “Spiro compounds useful as inhibitors of stearoyl-coenzyme A delta-9 desaturase” (Merck Canada Inc., priority 2009, dated 2013).

Sequences of proteins named here, by UniProt entry; tags and fusion partners are left off.
UniProt O00767, whole entry: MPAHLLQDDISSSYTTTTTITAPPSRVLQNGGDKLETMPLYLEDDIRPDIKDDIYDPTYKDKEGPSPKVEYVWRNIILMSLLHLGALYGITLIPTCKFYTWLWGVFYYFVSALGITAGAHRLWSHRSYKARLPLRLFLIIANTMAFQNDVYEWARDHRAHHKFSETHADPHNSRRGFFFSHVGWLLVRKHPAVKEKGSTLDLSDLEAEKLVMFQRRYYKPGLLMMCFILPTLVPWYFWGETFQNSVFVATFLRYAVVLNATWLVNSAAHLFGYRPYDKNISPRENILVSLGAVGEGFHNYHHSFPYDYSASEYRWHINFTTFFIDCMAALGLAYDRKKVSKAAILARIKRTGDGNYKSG

pIC50: −log10 of the molar value. The match of structure and compound is tentative.

As usually defined, the pIC50 is the negative decadic logarithm of the IC50, by convention in mol/L.

The assay concerns the target human SCD1 (Homo sapiens, UniProt O00767). Description: SCD enzyme activity assay, reconstituted human SCD1 desaturase system ([3H]-stearoyl-CoA conversion). The note with it: read-out: IC50 hSCD-1. On the procedure: The potency of compounds of formula I against the stearoyl-CoA desaturase was determined by measuring the conversion of radiolabeled stearoyl-CoA to oleoyl-CoA using rat liver microsome or human SCD1 following previously published procedures with some modifications (Joshi, et al., J. Lipid Res., 18: 32-36 (1977); Talamo, et al., Anal. Biochem, 29: 300-304 (1969)). Liver microsome was prepared from male Wistar or Sprague Dawley rats on a high carbohydrate diet for 3 days (LabDiet #5803, Purina). The livers were homogenized (1:10 w/v) in a buffer containing 250 mM sucrose, 1 mM EDTA, 5 mM DTT and 50 mM Tris-HCl (pH 7.5). After a 100,000×g centrifugation for […], the liver microsome pellet was suspended in a buffer containing 100 mM sodium phosphate, 20% glycerol, 2 mM DTT, and stored at −78° C. Human SCD1 desaturase system was reconstituted using human SCD1 from a baculovirus/Sf9 expression system, cytochrome B5 and cytochrome B5 reductase. Typically, test compound in 2 μL DMSO was incubated for […] at room temperature with 180 μL of the SCD enzyme in a buffer containing 100 mM Tris-HCl (pH 7.5), ATP (5 mM), Coenzyme-A (0.1 mM), Triton X-100 (0.5 mM) and NADH (2 mM). The reaction was initiated by the addition of 20 μL of [^3H]-stearoyl-CoA (final concentration=2 μM, radioactivity concentration=1 μCi/mL). After 10 min, the reaction mixture (80 μL) was mixed with a calcium chloride/charcoal aqueous suspension (100 μL charcoal (10% w/v) plus 25 μL CaCl2 (2N). After centrifugation to precipitate the radioactive fatty acid species, tritiated water released from 9,10-[^3H]-stearoyl-CoA by the SCD enzyme was quantified on a scintillation counter.
For `O=C(O)Cn1nnc(-c2cnc(N3CCC4(C=C(c5cc(Cl)ccc5Cl)c5c(Cl)cccc5O4)CC3)s2)n1`, the pIC50 is 8.89.
With `O=C(O)Cn1nnc(-c2cnc(N3CCC4(C=C(c5ccc(Cl)cc5Cl)c5ccccc5O4)CC3)s2)n1`, the negative logarithm of the IC50 (pIC50) is 9.00.
In the case of `O=C(O)Cn1nnc(-c2nnc(N3CCC4(C=C(c5ccc(Cl)cc5Cl)c5ccccc5O4)CC3)s2)n1`, the pIC50 is 8.85.
Consider `O=C(O)Cn1nnc(-c2cnc(N3CCC4(C=C(c5c(Cl)cccc5Cl)c5ccccc5O4)CC3)s2)n1`, for which the pIC50 is 8.89.
Take `O=C(O)Cn1nnc(-c2cnc(N3CCC4(C=C(c5ccc(Cl)cc5Cl)c5c(Cl)cccc5O4)CC3)s2)n1`: the negative logarithm of the IC50 (pIC50) was 9.40.
In the case of `O=C(O)Cn1nnc(-c2cnc(N3CCC4(C=C(c5cc(Cl)ccc5Cl)c5ccccc5O4)CC3)s2)n1`, the pIC50 is 8.85.
